Test results from the supplement of paper PMC10849652.
The list shows a part of the results.

Amino acid sequences for entries named in this document (tags omitted). A change or cut given only in a name is not applied to a line headed by its entry.
UniProt P61960, whole entry, looked up: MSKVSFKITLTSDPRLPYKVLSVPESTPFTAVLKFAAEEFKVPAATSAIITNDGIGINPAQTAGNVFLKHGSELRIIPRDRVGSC
UniProt P47985: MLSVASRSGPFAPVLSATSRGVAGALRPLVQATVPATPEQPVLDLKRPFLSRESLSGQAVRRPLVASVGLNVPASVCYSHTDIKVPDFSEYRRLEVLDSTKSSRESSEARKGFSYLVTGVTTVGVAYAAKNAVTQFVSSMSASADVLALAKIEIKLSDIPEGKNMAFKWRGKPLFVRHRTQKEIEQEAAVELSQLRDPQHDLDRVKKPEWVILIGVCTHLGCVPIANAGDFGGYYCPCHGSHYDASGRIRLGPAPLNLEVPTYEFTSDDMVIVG
UniProt Q86UV5: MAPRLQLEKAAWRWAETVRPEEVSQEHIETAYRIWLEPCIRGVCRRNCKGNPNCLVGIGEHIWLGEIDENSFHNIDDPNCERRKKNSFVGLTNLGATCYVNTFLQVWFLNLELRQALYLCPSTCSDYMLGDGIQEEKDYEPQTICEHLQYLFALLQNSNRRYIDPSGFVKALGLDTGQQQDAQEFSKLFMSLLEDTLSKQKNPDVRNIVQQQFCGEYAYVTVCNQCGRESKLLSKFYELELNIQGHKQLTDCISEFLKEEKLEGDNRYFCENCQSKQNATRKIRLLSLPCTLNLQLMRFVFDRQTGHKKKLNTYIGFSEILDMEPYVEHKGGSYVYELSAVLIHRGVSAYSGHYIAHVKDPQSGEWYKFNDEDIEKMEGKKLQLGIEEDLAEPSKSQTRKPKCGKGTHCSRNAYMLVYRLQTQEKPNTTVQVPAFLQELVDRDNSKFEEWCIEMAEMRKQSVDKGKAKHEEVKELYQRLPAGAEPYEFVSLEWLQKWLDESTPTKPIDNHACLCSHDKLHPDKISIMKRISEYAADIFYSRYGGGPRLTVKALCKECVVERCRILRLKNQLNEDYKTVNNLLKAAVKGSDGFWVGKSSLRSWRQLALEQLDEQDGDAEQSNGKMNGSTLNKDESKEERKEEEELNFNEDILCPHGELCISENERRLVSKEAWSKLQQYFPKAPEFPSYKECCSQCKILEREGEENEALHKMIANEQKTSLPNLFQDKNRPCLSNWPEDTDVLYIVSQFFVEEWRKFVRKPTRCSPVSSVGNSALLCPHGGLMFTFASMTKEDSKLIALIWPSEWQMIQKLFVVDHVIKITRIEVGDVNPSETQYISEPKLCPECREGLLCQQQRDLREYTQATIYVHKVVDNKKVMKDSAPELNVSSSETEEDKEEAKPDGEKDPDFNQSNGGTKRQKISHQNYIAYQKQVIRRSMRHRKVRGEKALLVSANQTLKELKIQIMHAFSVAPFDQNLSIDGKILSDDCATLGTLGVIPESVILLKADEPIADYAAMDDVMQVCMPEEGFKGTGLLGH
UniProt Q8IX04: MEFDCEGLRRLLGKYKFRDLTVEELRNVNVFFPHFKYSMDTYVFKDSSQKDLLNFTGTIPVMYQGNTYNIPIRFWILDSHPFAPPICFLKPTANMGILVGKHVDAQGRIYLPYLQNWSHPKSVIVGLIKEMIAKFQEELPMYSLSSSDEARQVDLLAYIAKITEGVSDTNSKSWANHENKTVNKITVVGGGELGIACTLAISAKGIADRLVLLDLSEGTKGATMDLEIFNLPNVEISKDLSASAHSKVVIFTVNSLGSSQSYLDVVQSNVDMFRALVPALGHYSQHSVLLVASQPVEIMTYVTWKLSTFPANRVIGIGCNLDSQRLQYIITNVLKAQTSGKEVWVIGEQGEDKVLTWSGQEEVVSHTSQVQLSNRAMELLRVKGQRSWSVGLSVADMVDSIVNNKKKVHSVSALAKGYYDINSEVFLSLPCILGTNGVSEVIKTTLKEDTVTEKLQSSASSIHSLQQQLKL
UniProt P45880: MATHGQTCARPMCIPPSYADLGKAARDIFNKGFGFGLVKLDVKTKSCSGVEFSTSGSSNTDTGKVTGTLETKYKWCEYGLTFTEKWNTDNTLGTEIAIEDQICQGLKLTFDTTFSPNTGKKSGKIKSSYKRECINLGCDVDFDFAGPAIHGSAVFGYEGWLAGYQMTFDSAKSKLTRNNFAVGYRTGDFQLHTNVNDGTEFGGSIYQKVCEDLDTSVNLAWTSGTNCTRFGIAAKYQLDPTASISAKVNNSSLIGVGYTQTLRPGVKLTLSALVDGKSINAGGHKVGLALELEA
UniProt Q99536: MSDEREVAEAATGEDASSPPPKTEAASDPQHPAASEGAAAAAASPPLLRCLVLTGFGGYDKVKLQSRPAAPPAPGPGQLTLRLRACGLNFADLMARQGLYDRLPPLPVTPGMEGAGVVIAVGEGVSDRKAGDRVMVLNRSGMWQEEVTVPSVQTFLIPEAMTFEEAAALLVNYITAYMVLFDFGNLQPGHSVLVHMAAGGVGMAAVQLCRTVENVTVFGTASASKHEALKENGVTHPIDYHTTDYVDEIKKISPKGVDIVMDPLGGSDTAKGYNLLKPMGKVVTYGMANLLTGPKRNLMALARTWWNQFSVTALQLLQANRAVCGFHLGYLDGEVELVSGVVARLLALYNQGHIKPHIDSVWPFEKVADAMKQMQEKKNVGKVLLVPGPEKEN
UniProt O14949: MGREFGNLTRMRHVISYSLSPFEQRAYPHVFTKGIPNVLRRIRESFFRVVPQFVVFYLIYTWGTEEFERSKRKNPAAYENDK
UniProt A6NIH7: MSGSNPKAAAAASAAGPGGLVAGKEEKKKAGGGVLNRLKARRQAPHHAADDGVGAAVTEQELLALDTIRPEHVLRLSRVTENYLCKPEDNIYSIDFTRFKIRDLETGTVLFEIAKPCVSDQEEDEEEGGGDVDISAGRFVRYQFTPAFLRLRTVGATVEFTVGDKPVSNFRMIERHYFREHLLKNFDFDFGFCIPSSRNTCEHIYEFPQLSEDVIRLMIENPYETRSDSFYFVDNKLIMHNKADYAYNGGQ
UniProt O95292, whole entry, looked up: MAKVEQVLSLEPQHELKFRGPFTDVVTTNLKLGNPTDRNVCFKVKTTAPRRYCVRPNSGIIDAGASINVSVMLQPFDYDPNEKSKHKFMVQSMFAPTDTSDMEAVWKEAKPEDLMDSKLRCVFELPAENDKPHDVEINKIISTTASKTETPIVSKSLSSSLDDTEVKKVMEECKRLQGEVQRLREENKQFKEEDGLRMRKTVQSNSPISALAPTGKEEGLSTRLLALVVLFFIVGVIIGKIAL
UniProt Q96BW1: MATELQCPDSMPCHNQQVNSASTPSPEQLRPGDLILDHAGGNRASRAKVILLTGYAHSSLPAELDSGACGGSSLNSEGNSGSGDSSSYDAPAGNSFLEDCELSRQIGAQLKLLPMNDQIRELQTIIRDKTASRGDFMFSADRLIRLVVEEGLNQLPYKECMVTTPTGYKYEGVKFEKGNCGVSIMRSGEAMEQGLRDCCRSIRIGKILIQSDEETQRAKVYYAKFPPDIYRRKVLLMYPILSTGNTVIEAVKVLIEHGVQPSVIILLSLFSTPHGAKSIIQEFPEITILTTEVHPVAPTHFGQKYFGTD
UniProt P50552: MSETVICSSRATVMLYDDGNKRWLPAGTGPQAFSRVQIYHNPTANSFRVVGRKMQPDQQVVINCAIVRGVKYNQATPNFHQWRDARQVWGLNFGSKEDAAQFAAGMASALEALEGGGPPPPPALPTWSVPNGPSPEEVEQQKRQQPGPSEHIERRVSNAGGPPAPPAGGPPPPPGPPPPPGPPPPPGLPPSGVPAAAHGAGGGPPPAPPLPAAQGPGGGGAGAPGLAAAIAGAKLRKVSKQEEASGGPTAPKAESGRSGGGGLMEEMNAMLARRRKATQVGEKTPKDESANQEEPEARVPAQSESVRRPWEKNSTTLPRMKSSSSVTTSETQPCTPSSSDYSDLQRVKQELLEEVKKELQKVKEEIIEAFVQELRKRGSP
UniProt Q16880: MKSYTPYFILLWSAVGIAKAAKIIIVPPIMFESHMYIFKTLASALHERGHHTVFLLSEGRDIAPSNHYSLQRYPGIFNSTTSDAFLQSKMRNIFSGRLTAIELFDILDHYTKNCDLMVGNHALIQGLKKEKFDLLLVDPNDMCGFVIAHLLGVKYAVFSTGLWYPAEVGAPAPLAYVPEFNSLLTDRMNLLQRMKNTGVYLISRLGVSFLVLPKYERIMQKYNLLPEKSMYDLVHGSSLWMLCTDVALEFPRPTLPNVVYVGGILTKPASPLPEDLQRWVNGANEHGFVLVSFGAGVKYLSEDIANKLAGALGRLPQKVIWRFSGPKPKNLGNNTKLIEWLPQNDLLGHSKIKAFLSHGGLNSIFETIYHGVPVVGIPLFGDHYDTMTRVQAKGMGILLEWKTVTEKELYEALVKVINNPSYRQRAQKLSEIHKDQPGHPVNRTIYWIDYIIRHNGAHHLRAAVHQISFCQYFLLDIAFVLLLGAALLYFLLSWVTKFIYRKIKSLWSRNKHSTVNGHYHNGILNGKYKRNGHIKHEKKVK
UniProt O75379: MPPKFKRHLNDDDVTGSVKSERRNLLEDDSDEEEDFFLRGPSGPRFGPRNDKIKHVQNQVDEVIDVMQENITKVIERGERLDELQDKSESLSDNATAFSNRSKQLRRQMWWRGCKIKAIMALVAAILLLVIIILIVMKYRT
UniProt O60763: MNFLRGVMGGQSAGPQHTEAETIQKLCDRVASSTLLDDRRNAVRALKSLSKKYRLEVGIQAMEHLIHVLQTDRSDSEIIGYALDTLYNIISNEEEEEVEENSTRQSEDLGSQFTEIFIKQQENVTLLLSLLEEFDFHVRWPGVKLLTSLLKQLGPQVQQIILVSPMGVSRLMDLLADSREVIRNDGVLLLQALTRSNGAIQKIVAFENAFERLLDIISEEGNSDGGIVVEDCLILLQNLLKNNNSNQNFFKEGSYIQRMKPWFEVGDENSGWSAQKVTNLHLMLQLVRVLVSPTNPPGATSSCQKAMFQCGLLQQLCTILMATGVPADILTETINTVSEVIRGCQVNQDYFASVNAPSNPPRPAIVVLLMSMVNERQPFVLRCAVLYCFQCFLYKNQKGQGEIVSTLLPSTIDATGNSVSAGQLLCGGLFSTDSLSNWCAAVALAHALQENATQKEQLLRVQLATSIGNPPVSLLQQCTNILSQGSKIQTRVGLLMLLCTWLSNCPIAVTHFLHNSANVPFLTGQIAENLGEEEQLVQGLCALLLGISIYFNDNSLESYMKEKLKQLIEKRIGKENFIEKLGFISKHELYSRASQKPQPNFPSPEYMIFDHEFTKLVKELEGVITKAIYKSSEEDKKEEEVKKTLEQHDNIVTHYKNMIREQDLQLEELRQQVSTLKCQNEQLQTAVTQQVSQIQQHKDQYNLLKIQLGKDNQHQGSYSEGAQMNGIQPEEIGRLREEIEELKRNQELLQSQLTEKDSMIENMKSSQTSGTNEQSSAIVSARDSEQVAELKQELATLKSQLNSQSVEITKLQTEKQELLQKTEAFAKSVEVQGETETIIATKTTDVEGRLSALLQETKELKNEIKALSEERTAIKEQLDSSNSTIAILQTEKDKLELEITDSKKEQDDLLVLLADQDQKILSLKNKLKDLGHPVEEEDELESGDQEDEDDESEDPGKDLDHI
UniProt Q9Y4E8: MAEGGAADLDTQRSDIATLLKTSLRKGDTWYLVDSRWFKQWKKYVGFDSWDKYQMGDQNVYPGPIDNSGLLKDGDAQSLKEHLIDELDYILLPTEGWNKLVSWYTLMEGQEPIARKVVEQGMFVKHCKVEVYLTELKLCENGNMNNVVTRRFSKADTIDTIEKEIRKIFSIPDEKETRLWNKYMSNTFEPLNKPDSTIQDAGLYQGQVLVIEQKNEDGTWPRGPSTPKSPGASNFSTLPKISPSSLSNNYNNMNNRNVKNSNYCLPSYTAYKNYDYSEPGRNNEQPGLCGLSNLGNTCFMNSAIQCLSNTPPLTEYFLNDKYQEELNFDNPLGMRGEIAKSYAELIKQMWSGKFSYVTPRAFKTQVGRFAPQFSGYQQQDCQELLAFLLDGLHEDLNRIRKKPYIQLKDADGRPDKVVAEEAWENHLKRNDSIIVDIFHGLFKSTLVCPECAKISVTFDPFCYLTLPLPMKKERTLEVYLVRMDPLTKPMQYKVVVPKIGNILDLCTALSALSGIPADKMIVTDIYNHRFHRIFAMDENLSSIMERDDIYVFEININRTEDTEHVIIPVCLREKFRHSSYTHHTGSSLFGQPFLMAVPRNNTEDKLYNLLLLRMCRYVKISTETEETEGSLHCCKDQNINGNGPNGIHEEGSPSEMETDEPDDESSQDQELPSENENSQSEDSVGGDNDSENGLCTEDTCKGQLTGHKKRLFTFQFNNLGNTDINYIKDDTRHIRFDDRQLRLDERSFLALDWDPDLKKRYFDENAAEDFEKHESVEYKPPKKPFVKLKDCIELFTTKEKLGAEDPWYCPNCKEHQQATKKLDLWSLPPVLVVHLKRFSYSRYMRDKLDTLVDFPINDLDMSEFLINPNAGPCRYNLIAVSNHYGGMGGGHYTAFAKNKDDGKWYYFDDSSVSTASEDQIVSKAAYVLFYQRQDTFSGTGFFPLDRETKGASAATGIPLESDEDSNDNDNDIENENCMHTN

Tests used:
Experiment in all cases: log2 fold change, soluble protein after heating vs DMSO (PISA); higher = thermal stabilisation; K562 lysate, 10 uM; active = over 0.2 and 3.5 SD of the protein, either way, in both replicates (recomputed)
nilotinib = compound: Cc1cn(-c2cc(NC(=O)c3ccc(C)c(Nc4nccc(-c5cccnc5)n4)c3)cc(C(F)(F)F)c2)cn1 [nilotinib]
Method in brief: (§1)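 Soluble protein was defined as the supernatant remaining after 21,000xg for 90 min, following pooling of heated aliquots and adjustment to 0.5% NP-40 at 4°C. Before that, crude K562 extract at 1 mg/mL protein in PBS pH 7.4 with 1 mM MgCl2 was treated with 10 μM compound for 30 min and heated for 3 min across 48°C-58°C. Quantification used TMTpro 16plex LC-MS/MS with channel sums equalised, and values are log-two fold changes in thermal stability relative to solvent controls from duplicates.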

[1] = compound: Cc1nc(Nc2n[nH]c3c2CN(C(=O)N[C@H](CN(C)C)c2ccccc2)C3(C)C)c2sccc2n1
Method in brief: as §1

dasatinib = compound: Cc1nc(Nc2ncc(C(=O)Nc3c(C)cccc3Cl)s2)cc(N2CCN(CCO)CC2)n1 [dasatinib]
Method in brief: as §1

[2] = compound: Cc1ncc(-c2ccnc(Nc3ccc(S(C)(=O)=O)cc3)n2)n1C(C)C
Method in brief: as §1

[3] = compound: Cn1cc(-c2ccc3c(c2)CCN3C(=O)Cc2cccc(C(F)(F)F)c2)c2c(N)ncnc21
Method in brief: as §1

quisinostat = compound: Cn1cc(CNCC2CCN(c3ncc(C(=O)NO)cn3)CC2)c2ccccc21 [quisinostat]
Method in brief: as §1

tipifarnib = compound: Cn1cncc1[C@@](N)(c1ccc(Cl)cc1)c1ccc2c(c1)c(-c1cccc(Cl)c1)cc(=O)n2C [tipifarnib]
Method in brief: as §1

[4] = compound: NC(=O)Nc1cc(-c2cccc(F)c2)sc1C(=O)N[C@H]1CCCNC1
Method in brief: as §1

[5] = compound: NC(=O)c1cnc(N[C@@H]2CCCC[C@@H]2N)nc1Nc1cccc(-n2nccn2)c1
Method in brief: as §1

[6] = compound: NC1(c2ccc(-c3nc4ccn5c(=O)[nH]nc5c4cc3-c3ccccc3)cc2)CCC1
Method in brief: as §1

[7] = compound: NCC(=O)Nc1ccc(-n2nc(C(F)(F)F)cc2-c2ccc3c(ccc4ccccc43)c2)cc1
Method in brief: as §1

vorinostat = compound: O=C(CCCCCCC(=O)Nc1ccccc1)NO [vorinostat]
Method in brief: as §1

silmitasertib = compound: O=C(O)c1ccc2c(c1)nc(Nc1cccc(Cl)c1)c1ccncc12 [silmitasertib]
Method in brief: as §1

[8] = compound: O=C1NC(=O)C(c2cnc3ccccn23)=C1c1cn2c3c(cc(F)cc13)CN(C(=O)N1CCCCC1)CC2
Method in brief: as §1

entospletinib = compound: c1cn2cc(-c3ccc4cn[nH]c4c3)nc(Nc3ccc(N4CCOCC4)cc3)c2n1 [entospletinib]
Method in brief: as §1

Measured: log2 fold change

UFM1 (UniProt P61960)
inactive: nilotinib 0.042 | [1] 0 | dasatinib -0.037 | [2] 0.107 | [3] -0.032 | quisinostat 0.321 | tipifarnib 0.088 | [4] -0.116 | [5] -0.063 | [6] 0.043 | [7] -0.247 | vorinostat 0.036 | silmitasertib -0.074 | [8] -0.109 | entospletinib -0.011

UQCRFS1 (UniProt P47985)
inactive: nilotinib 0.016 | [1] -0.026 | dasatinib 0.055 | [2] 0.037 | [3] 0.015 | quisinostat 0.071 | tipifarnib 0.009 | [4] -0.034 | [5] -0.03 | [6] 0.007 | [7] 0.016 | vorinostat 0.066 | silmitasertib -0.011 | [8] 0.004 | entospletinib 0.01

UGDH (UniProt O60701)
active: dasatinib 0.217
inactive: nilotinib 0.008 | [1] -0.012 | [2] 0.009 | [3] -0.034 | quisinostat 0.019 | tipifarnib 0.007 | [4] 0.039 | [5] -0.01 | [6] 0.006 | [7] 0.039 | vorinostat -0.206 | silmitasertib 0.001 | [8] 0.01 | entospletinib -0.01

USP48 isoform 8 (UniProt Q86UV5)
active: vorinostat -0.474
inactive: nilotinib 0.018 | [1] 0.008 | dasatinib 0.001 | [2] 0 | [3] 0.015 | quisinostat -0.04 | tipifarnib -0.011 | [4] 0.008 | [5] -0.001 | [6] -0.024 | [7] 0.014 | silmitasertib 0.009 | [8] -0.022 | entospletinib 0.021

UEVLD (UniProt Q8IX04)
inactive: nilotinib 0.009 | [1] -0.013 | dasatinib -0.027 | [2] 0.023 | [3] 0.033 | quisinostat -0.024 | tipifarnib -0.007 | [4] 0.001 | [5] -0.028 | [6] 0.025 | [7] 0.074 | vorinostat 0.074 | silmitasertib -0.035 | [8] -0.034 | entospletinib -0.027

VDAC2 isoform 2 (UniProt P45880)
inactive: nilotinib 0.024 | [1] -0.007 | dasatinib -0.013 | [2] 0.03 | [3] -0.008 | quisinostat 0.006 | tipifarnib 0.01 | [4] -0.009 | [5] 0 | [6] 0.021 | [7] 0.001 | vorinostat 0.181 | silmitasertib 0.001 | [8] 0.012 | entospletinib 0.002

URI1 (UniProt O94763)
inactive: nilotinib 0.002 | [1] -0.003 | dasatinib 0.017 | [2] -0.034 | [3] -0.005 | quisinostat -0.015 | tipifarnib -0.02 | [4] -0.014 | [5] -0.04 | [6] 0.006 | [7] 0.012 | vorinostat 0.014 | silmitasertib -0.001 | [8] -0.008 | entospletinib -0.011

UNC45A (UniProt Q9H3U1)
active: vorinostat -0.588
inactive: nilotinib -0.007 | [1] 0.003 | dasatinib -0.051 | [2] 0.018 | [3] 0.016 | quisinostat -0.047 | tipifarnib -0.015 | [4] 0.03 | [5] 0.016 | [6] -0.001 | [7] -0.005 | silmitasertib 0.011 | [8] 0.008 | entospletinib 0.01

VAT1 (UniProt Q99536)
inactive: nilotinib 0.041 | [1] 0.017 | dasatinib 0.032 | [2] 0.024 | [3] -0.027 | quisinostat 0.012 | tipifarnib 0.013 | [4] -0.019 | [5] -0.037 | [6] 0.007 | [7] 0.019 | vorinostat 0.124 | silmitasertib -0.043 | [8] 0.001 | entospletinib 0.001

UQCRQ (UniProt O14949)
inactive: nilotinib 0.038 | [1] 0 | dasatinib 0.017 | [2] -0.014 | [3] -0.018 | quisinostat -0.004 | tipifarnib -0.008 | [4] 0.008 | [5] -0.021 | [6] 0.013 | [7] -0.016 | vorinostat 0.069 | silmitasertib 0.033 | [8] -0.02 | entospletinib 0.009

UNC119B (UniProt A6NIH7)
inactive: nilotinib 0.046 | [1] -0.047 | dasatinib -0.066 | [2] 0.061 | [3] -0.008 | quisinostat 0.24 | tipifarnib -0.068 | [4] -0.043 | [5] -0.03 | [6] 0.029 | [7] -0.076 | vorinostat 0.181 | silmitasertib -0.049 | [8] -0.023 | entospletinib -0.039

VAPB (UniProt O95292)
inactive: nilotinib 0.027 | [1] 0.025 | dasatinib 0.06 | [2] 0.007 | [3] 0.05 | quisinostat 0.023 | tipifarnib -0.014 | [4] -0.021 | [5] -0.017 | [6] -0.023 | [7] 0.057 | vorinostat 0.039 | silmitasertib -0.025 | [8] -0.038 | entospletinib 0.033

UPRT (UniProt Q96BW1)
inactive: nilotinib 0.052 | [1] 0.171 | dasatinib -0.041 | [2] 0.024 | [3] -0.058 | quisinostat -0.018 | tipifarnib 0.028 | [4] 0 | [5] 0.061 | [6] -0.033 | [7] 0.08 | vorinostat -0.081 | silmitasertib 0.075 | [8] 0.064 | entospletinib 0.011

USP39 (UniProt Q53GS9)
inactive: nilotinib 0.012 | [1] 0.001 | dasatinib 0.004 | [2] -0.011 | [3] -0.024 | quisinostat -0.011 | tipifarnib -0.016 | [4] 0.019 | [5] 0.005 | [6] 0.004 | [7] 0.021 | vorinostat -0.031 | silmitasertib 0.003 | [8] -0.028 | entospletinib -0.001

VASP (UniProt P50552)
inactive: nilotinib -0.025 | [1] -0.002 | dasatinib -0.061 | [2] -0.014 | [3] -0.001 | quisinostat 0.012 | tipifarnib 0.008 | [4] -0.012 | [5] -0.006 | [6] 0.013 | [7] 0.035 | vorinostat 0.015 | silmitasertib 0.015 | [8] 0.01 | entospletinib -0.013

UGT8 (UniProt Q16880)
inactive: nilotinib 0.135 | [1] 0.019 | dasatinib 0 | [2] -0.048 | [3] 0.043 | quisinostat -0.046 | tipifarnib 0.02 | [4] -0.09 | [5] -0.083 | [6] -0.048 | [7] 0.013 | vorinostat 0.223 | silmitasertib -0.134 | [8] 0.022 | entospletinib 0.034

UPF1 (UniProt Q92900)
inactive: nilotinib -0.009 | [1] -0.003 | dasatinib -0.01 | [2] 0.007 | [3] -0.003 | quisinostat 0.028 | tipifarnib 0.017 | [4] -0.025 | [5] -0.006 | [6] -0.013 | [7] 0.008 | vorinostat 0.097 | silmitasertib -0.012 | [8] 0.008 | entospletinib 0.003

USP13 (UniProt Q92995)
inactive: nilotinib 0.017 | [1] 0.051 | dasatinib 0.023 | [2] 0.054 | [3] -0.01 | quisinostat 0.017 | tipifarnib 0.056 | [4] -0.027 | [5] -0.095 | [6] -0.011 | [7] 0.017 | vorinostat -0.036 | silmitasertib 0.089 | [8] -0.001 | entospletinib 0.051

VAMP4 (UniProt O75379)
inactive: nilotinib 0.018 | [1] 0.012 | dasatinib -0.03 | [2] -0.396 | [3] 0.056 | quisinostat 0.01 | tipifarnib -0.308 | [4] -0.043 | [5] 0.042 | [6] 0.023 | [7] -0.057 | vorinostat 0.171 | silmitasertib -0.039 | [8] -0.008 | entospletinib -0.005

USO1 isoform 2 (UniProt O60763)
inactive: nilotinib -0.013 | [1] 0.021 | dasatinib 0.007 | [2] -0.007 | [3] -0.004 | quisinostat -0.03 | tipifarnib -0.023 | [4] -0.007 | [5] 0.002 | [6] -0.007 | [7] 0.01 | vorinostat 0.051 | silmitasertib -0.005 | [8] -0.004 | entospletinib -0.01

USP15 (UniProt Q9Y4E8)
inactive: nilotinib -0.012 | [1] 0.001 | dasatinib 0.001 | [2] -0.004 | [3] 0.002 | quisinostat 0.033 | tipifarnib -0.002 | [4] 0.021 | [5] -0.001 | [6] 0.009 | [7] 0.001 | vorinostat -0.033 | silmitasertib 0.021 | [8] -0.033 | entospletinib 0.008

Reprinted at random: 2 entries already listed, in no set order.
VAMP4 (UniProt O75379)
inactive: nilotinib 0.018 | [1] 0.012 | dasatinib -0.03 | [2] -0.396 | [3] 0.056 | quisinostat 0.01 | tipifarnib -0.308 | [4] -0.043 | [5] 0.042 | [6] 0.023 | [7] -0.057 | vorinostat 0.171 | silmitasertib -0.039 | [8] -0.008 | entospletinib -0.005

UNC45A (UniProt Q9H3U1)
active: vorinostat -0.588
inactive: nilotinib -0.007 | [1] 0.003 | dasatinib -0.051 | [2] 0.018 | [3] 0.016 | quisinostat -0.047 | tipifarnib -0.015 | [4] 0.03 | [5] 0.016 | [6] -0.001 | [7] -0.005 | silmitasertib 0.011 | [8] 0.008 | entospletinib 0.01
